PubChem BioAssay AID504764 – Drosophila RNAi Screening Center, 2011
Assay: 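Knock-downs that raise or lower a Notch target reporter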 (primary screen). System: Drosophila Kc167 cells. Reagents: long dsRNA against Drosophila genes. Timing: about 5 days (4 days dsRNA, then 24 h after transfection). Treatment: transfection of constitutively active membrane-tethered Notch lacking the extracellular domain, read 24 h later. Measured: 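Firefly luciferase from an E(spl)m3 reporter with active Notch, plus control-promoter and uninduced reporter wells for normalisation; unnormalised counts, duplicate wells a and b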. Direction: induced reporter light, run 1, well a and induced reporter light, run 1, well b: higher = more light from the Notch target reporter with active Notch; control promoter light, run 1, well a and control promoter light, run 1, well b: higher = more light from the viral control promoter (cell number, transfection, viability); uninduced reporter light, run 1, well a: higher = more light from the Notch target reporter without active Notch. Call rule: 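Wells with low control signal or poorly matching duplicates excluded; duplicates averaged; per source plate, z beyond ±2 for induced/control log2 ratio or beyond ±1.8 for induced/uninduced marks a hit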. Calls: active = modifier hit (raised or lowered Notch signal); inactive = not a hit.
In all, the deposit lists about 22,000 reagents; shown is a random part of those with a known target gene and a result. Over the whole deposit, 403 (1.9%) got an active call. 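Unnormalised raw counts per well; ratio z-scores behind the hit calls and whether each hit raises or lowers signal are not deposited.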 Entries without a mark were called inactive. Names joined by + are all predicted targets of the reagent. Not stated in the record: the amount of reagent.

| Gene | DRSC id | induced reporter light, run 1, well a | induced reporter light, run 1, well b | control promoter light, run 1, well a | control promoter light, run 1, well b | uninduced reporter light, run 1, well a |
| --- | --- | --- | --- | --- | --- | --- |
| NKAIN (GeneID 37979) | DRSC04531 | 1.74e5 | 2.07e5 | 1.61e5 | 2.00e5 | 13020 |
| CG17065 (GeneID 33026) | DRSC20544 | 97435 | 99645 | 1.10e5 | 1.23e5 | 11650 |
| zip (GeneID 38001) | DRSC04725 | 1.58e5 | 1.75e5 | 1.74e5 | 1.55e5 | 12475 |
| CG6287 (GeneID 34554) | DRSC02947 | 2.20e5 | 2.16e5 | 2.09e5 | 1.98e5 | 17620 |
| PolE1 (GeneID 42758) | DRSC16112 | 6920 | 5660 | 6565 | 9030 | 665 |
| CG3119 (GeneID 33479) | DRSC00569 | 1.13e5 | 1.30e5 | 1.31e5 | 97280 | 11480 |
| CG12134 (GeneID 36038) | DRSC06109 | 2.16e5 | 1.97e5 | 2.22e5 | 1.88e5 | 17275 |
| CG30487 (GeneID 246646) | DRSC05377 | 1.83e5 | 2.15e5 | 2.99e5 | 3.41e5 | 21028 |
| Osi13 (GeneID 40769) | DRSC12281 | 1.15e5 | 1.16e5 | 1.28e5 | 1.14e5 | 7835 |
| msn (GeneID 44030) | DRSC07990 | 2.60e5 | 2.08e5 | 2.81e5 | 3.01e5 | 14690 |
| msn (GeneID 44030) | DRSC08498 | 1.19e5 | 93470 | 1.73e5 | 1.41e5 | 4960 |
| HnRNP-K (GeneID 43862) | DRSC07585 | 1.31e5 | 1.05e5 | 1.66e5 | 1.99e5 | 9750 |
| CG4645 (GeneID 32244) | DRSC19907 | 1.60e5 | 1.65e5 | 1.70e5 | 2.15e5 | 12055 |
| dnd (GeneID 42580) | DRSC16064 | 1.44e5 | 1.65e5 | 1.84e5 | 1.66e5 | 12730 |
| Vps24 (GeneID 40542) | DRSC12332 | 91990 | 85980 | 59110 | 72135 | 8250 |
| Pex16 (GeneID 40293) | DRSC11750 | 1.08e5 | 1.23e5 | 78055 | 92495 | 9678 |
| CG9582 (GeneID 34230) | DRSC03267 | 1.16e5 | 1.45e5 | 73560 | 1.04e5 | 19550 |
| CG31013 (GeneID 326111) | DRSC16542 | 1.29e5 | 1.22e5 | 1.64e5 | 1.88e5 | 11320 |
| Cpr49Af (GeneID 36352) | DRSC07202 | 83430 | 92150 | 1.31e5 | 1.31e5 | 8970 |
| CG34181 (GeneID 5740634) | DRSC01071 | 1.68e5 | 1.56e5 | 1.99e5 | 2.11e5 | 9550 |
| tex (GeneID 40983) | DRSC16517 | 28820 | 42965 | 31095 | 33280 | 2875 |
| RabGGTa (GeneID 40617) | DRSC12189 | 1.62e5 | 1.53e5 | 1.11e5 | 1.03e5 | 12010 |
| CG14715 (GeneID 41403) | DRSC14938 | 1.36e5 | 1.46e5 | 86605 | 74195 | 12100 |
| CG8079 (GeneID 36689) | DRSC07070 | 1.21e5 | 1.29e5 | 1.99e5 | 2.50e5 | 12170 |
| CG8079 (GeneID 36689) | DRSC07071 | 1.01e5 | 1.29e5 | 1.36e5 | 1.12e5 | 9365 |
| Naa15-16 (GeneID 32934) | DRSC19440 | 1.80e5 | 1.80e5 | 3.10e5 | 3.27e5 | 15695 |
| CG5895 (GeneID 39752) | DRSC10554 | 1.94e5 | 2.30e5 | 2.42e5 | 2.19e5 | 10678 |
| r2d2 (GeneID 34066) | DRSC03014 | 1.21e5 | 1.58e5 | 99180 | 1.30e5 | 20290 |
| CR15280 (GeneID 3885605) | DRSC01953 | 1.38e5 | 1.42e5 | 1.56e5 | 1.72e5 | 11455 |
| CG43775 (GeneID 37863) | DRSC04206 | 1.75e5 | 1.54e5 | 1.61e5 | 1.41e5 | 12035 |
| Grl65a (GeneID 117342) | DRSC08837 | 2.54e5 | 2.08e5 | 2.40e5 | 2.59e5 | 16460 |
| CG34022 (retired record) (GeneID 3885663) | DRSC07949 | 1.60e5 | 1.40e5 | 2.09e5 | 2.10e5 | 8040 |
| Alms1b + Alms1a | DRSC18559 | 2.16e5 | 2.10e5 | 2.95e5 | 3.45e5 | 14285 |
| Tomosyn (GeneID 32217) | DRSC19365 | 30705 | 30185 | 38975 | 41640 | 6815 |
| Tomosyn (GeneID 32217) | DRSC19692 | 95710 | 98840 | 1.33e5 | 1.64e5 | 6040 |
| Tomosyn (GeneID 32217) | DRSC19782 | 1.20e5 | 1.35e5 | 1.84e5 | 1.33e5 | 9405 |
| Tomosyn (GeneID 32217) | DRSC19842 | 1.13e5 | 1.17e5 | 1.96e5 | 1.71e5 | 7985 |
| CG12507 (GeneID 32580) | DRSC19463 | 77855 | 57010 | 71805 | 77180 | 8140 |
| Bgb (GeneID 38198) | DRSC08148 | 1.07e5 | 1.26e5 | 2.22e5 | 1.96e5 | 8428 |
| ImpE2 (GeneID 38432) | DRSC08665 | 1.18e5 | 1.07e5 | 80175 | 19460 | 9440 |
| dpr6 (GeneID 50296) | DRSC09005 | 1.57e5 | 1.71e5 | 84595 | 84450 | 11420 |
| dpr6 (GeneID 50296) | DRSC10162 | 1.79e5 | 1.58e5 | 2.05e5 | 1.50e5 | 7992 |
| dpr6 (GeneID 50296) | DRSC10163 | 1.58e5 | 1.62e5 | 2.49e5 | 3.11e5 | 16170 |
| Den1 (GeneID 36339) | DRSC07195 | 89585 | 89785 | 1.27e5 | 78260 | 8370 |
| CG6321 (GeneID 39233) | DRSC10623 | 1.16e5 | 1.15e5 | 95170 | 29480 | 9932 |
| mRpL17 (GeneID 38046) | DRSC08350 | 1.36e5 | 1.42e5 | 3.25e5 | 2.33e5 | 7878 |
| Pgant7 (GeneID 32836) | DRSC19991 | 1.65e5 | 1.50e5 | 1.43e5 | 74570 | 11205 |
| pps (GeneID 41524) | DRSC16057 | 64285 | 81635 | 1.02e5 | 61745 | 4270 |
| E23 (GeneID 43895) | DRSC00425 | 6290 | 5970 | 7710 | 6675 | 3205 |
| E23 (GeneID 43895) | DRSC00593 | 2.54e5 | 2.54e5 | 2.29e5 | 2.20e5 | 12478 |

Looked up above.
Value for CG6321 (GeneID 39233) [DRSC10623] in “control promoter light, run 1, well b”: 29480
pps (GeneID 41524) [DRSC16057], induced reporter light, run 1, well a = 64285
